# Data taken from the supplement of paper PMC9135407.
# “And” between values parts separate entries of the source, which are not always exact repeats. Identical values can stand only once. Counter-ions that a name gives are not always drawn. ± gives the standard deviation of the averaged measurements. The list shows a part of the results. Plates or batches differ in their baseline, so values are only roughly comparable.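 Culture-activated primary human stellate myofibroblasts, where regained lipid droplets signal inactivation. Value: share of Hoechst-counted cells above a per-plate Bodipy cutoff, in duplicate wells, with DMSO negative and nortriptyline positive controls on each plate. Hits: a control-normalized score above the plate's top-tenth-percentile nortriptyline wells, or one of a plate's three best wells. Final well concentrations are not given.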
# System: primary human hepatic stellate cells (donor 1)
# Assay: percent Bodipy-positive cells; higher = more lipid droplet accumulation
# Details: 48 h
# [1] = library stock concentration: 1 mM
# [2] = library stock concentration: 10 mM
# [3] = library stock concentration: 3.33 mM
# [4] = library stock concentration: 80 uM
# [5] = library stock concentration: 400 uM
# [6] = library stock concentration: 2 mM
smiles,measurement,setting,value
C#CCCCCCCCCCCCCCCCC(=O)O [17-Octadecynoic acid],percent Bodipy-positive cells,[1],6.28 ± 2.6%
C#CCCCCCCCCCCCCCCCC(=O)O [17-Octadecynoic Acid],percent Bodipy-positive cells,[1],7.4 ± 0.19%
CN1[C@@H]2CC[C@H]1C[C@@H](OC(c1ccccc1)c1ccccc1)C2 [Cogentin Mesylate],percent Bodipy-positive cells,[2],90.6 ± 2.4%
CN1[C@@H]2CC[C@H]1C[C@@H](OC(c1ccccc1)c1ccccc1)C2 [Benztropine],percent Bodipy-positive cells,library stock concentration: 4.9 mM,18.3 ± 4.4%
same,percent Bodipy-positive cells,[2],51.3 ± 6%
CN1[C@@H]2CC[C@H]1C[C@@H](OC(c1ccccc1)c1ccccc1)C2 [Benztropine mesylate],percent Bodipy-positive cells,[3],26.7 ± 5.7%
C=C1C(=CC=C2CCC[C@]3(C)[C@@H]([C@H](C)CCCC(C)C)CC[C@@H]23)C[C@@H](O)C[C@@H]1O [Alfacalcidol],percent Bodipy-positive cells,[2],99.14 ± 0.42%
C[C@@H]1O[C@@H](OC[C@H]2O[C@@H](Oc3c(-c4ccc(O)c(O)c4)oc4cc(O)cc(O)c4c3=O)[C@H](O)[C@@H](O)[C@@H]2O)[C@H](O)[C@H](O)[C@H]1O,percent Bodipy-positive cells,[2],10.6 ± 5.9%
C[C@@H]1O[C@@H](OC[C@H]2O[C@@H](Oc3c(-c4ccc(O)c(O)c4)oc4cc(O)cc(O)c4c3=O)[C@H](O)[C@@H](O)[C@@H]2O)[C@H](O)[C@H](O)[C@H]1O [Rutin],percent Bodipy-positive cells,[3],8.12 ± 1.7%
same,percent Bodipy-positive cells,[2],11.7 ± 2.2%
CCCCC[C@H](O)CC[C@@H]1[C@H]2Cc3cccc(OCC(=O)O)c3C[C@H]2C[C@H]1O [Treprostinil],percent Bodipy-positive cells,[1],21.4 ± 2.1%
Cc1nn(C)c(COc2ccc(N3CCN(S(=O)(=O)N(C)C)CC3)cc2)c1-c1cccc2c(CCCOc3cccc4ccccc34)c(C(=O)O)n(CCN3CCOCC3)c12,percent Bodipy-positive cells,[4],9.74 ± 5.5%
same,percent Bodipy-positive cells,[5],7.54 ± 0.93%
same,percent Bodipy-positive cells,[6],8.56 ± 2.8%
same,percent Bodipy-positive cells,[2],25.9 ± 9.8%
CCCC(=O)Nc1ccc(OCC(O)CNC(C)C)c(C(C)=O)c1 (configuration not stated) [Acebutolol hydrochloride],percent Bodipy-positive cells,,25.3 ± 7.4%
same,percent Bodipy-positive cells,library stock concentration: 5.4 mM,13 ± 5.1%
same,percent Bodipy-positive cells,[2],16.9 ± 11%
CCCC(=O)Nc1ccc(OCC(O)CNC(C)C)c(C(C)=O)c1 (configuration not stated) [Acebutolol HCl],percent Bodipy-positive cells,[3],8.29 ± 1.7%
same,percent Bodipy-positive cells,[2],22.4 ± 5.8%
COc1ccnc2[nH]cc(C(=O)C(=O)N3CCN(C(=O)c4ccccc4)C[C@H]3C)c12,percent Bodipy-positive cells,[3],8.08 ± 2.4%
same,percent Bodipy-positive cells,[2],17.8 ± 0.66%
CCCCCCCCCCCCCCCCO [1-Hexadecanol],percent Bodipy-positive cells,[3],7.32 ± 1.4%
same,percent Bodipy-positive cells,[2],33.3 ± 8.8%
"CN(C)C(=O)N=NC(=O)N(C)C [N,N,N',N'-Tetramethylazodicarboxamide]",percent Bodipy-positive cells,[2],41.4 ± 3.3%
CCN1/C(=C/C(C)=O)Sc2ccc(OC)cc21,percent Bodipy-positive cells,[4],8.66 ± 6.2%
same,percent Bodipy-positive cells,[5],7.81 ± 1.9%
same,percent Bodipy-positive cells,[6],10.1 ± 3.3%
same,percent Bodipy-positive cells,[2],7.08% and 31.5%
C[C@H]1c2cccc(O)c2C(O)=C2C(=O)[C@]3(O)C(O)=C(C(N)=O)C(=O)[C@@H](N(C)C)[C@@H]3[C@@H](O)[C@@H]21 [Doxycycline Hyclate],percent Bodipy-positive cells,[3],8.68 ± 0.75%
same,percent Bodipy-positive cells,[2],36 ± 3.8%
Nc1nc(=O)c2c([nH]1)NCC(CNc1ccc(C(=O)N[C@@H](CCC(=O)O)C(=O)O)cc1)N2C=O (some centres not stated) [Leucovorin calcium],percent Bodipy-positive cells,[2],16.9 ± 0.56%
C/N=C(/NC#N)NCCSCc1csc(NC(=N)N)n1 [Tiotidine],percent Bodipy-positive cells,library stock concentration: 6.4 mM,7.58 ± 0.72%
same,percent Bodipy-positive cells,[2],10.7 ± 0.65%
COc1ccc2nc3cc(Cl)ccc3c(Nc3cc(CN4CCCC4)c(O)c(CN4CCCC4)c3)c2n1,percent Bodipy-positive cells,[2],93.7 ± 1.6%
C=CCc1ccccc1OCC(O)CNC(C)C (configuration not stated) [Alprenolol HCl],percent Bodipy-positive cells,library stock concentration: 8 mM,33.8 ± 1.2%
C=CCc1ccccc1OCC(O)CNC(C)C (configuration not stated) [Alprenolol hydrochloride],percent Bodipy-positive cells,,60.8 ± 3.1%
same,percent Bodipy-positive cells,[2],78.3 ± 13%
Oc1c(Cl)cc(Cl)cc1Sc1cc(Cl)cc(Cl)c1O [Bithionate sodium],percent Bodipy-positive cells,library stock concentration: 5 mM,9.56 ± 2.3%
Oc1c(Cl)cc(Cl)cc1Sc1cc(Cl)cc(Cl)c1O [Bithionol],percent Bodipy-positive cells,[2],12.8 ± 3.3%
CC(=O)OC(C)C[N+](C)(C)C (stereo not drawn) [Acetyl-beta-methylcholine chloride],percent Bodipy-positive cells,[2],48.3 ± 9.8%
CC(=O)OC(C)C[N+](C)(C)C (configuration not stated) [Methacholine chloride],percent Bodipy-positive cells,,9.14 ± 3.7%
same,percent Bodipy-positive cells,[2],14.7 ± 2.5%
CCCCOc1ccc(CC(=O)NO)cc1 [Bufexamac],percent Bodipy-positive cells,,22.5 ± 6.6%
same,percent Bodipy-positive cells,[3],7.98 ± 3.1%
same,percent Bodipy-positive cells,[2],13.1% and 18.4%
Cc1cc(C)cc(NC(=O)Cc2ccc(OC(C)(C)C(=O)O)cc2)c1 [Efaproxiral Sodium],percent Bodipy-positive cells,[3],13.5 ± 2.2%
same,percent Bodipy-positive cells,[2],30.2 ± 4.8%
CCCCC[C@H](CC(=O)NO)C(=O)N[C@H](C(=O)N1CCC[C@H]1CO)C(C)C [Actinonin],percent Bodipy-positive cells,[2],38.4 ± 8.4%
Cc1ccc(O)c([C@H](CCN(C(C)C)C(C)C)c2ccccc2)c1 [Tolterodine tartrate],percent Bodipy-positive cells,[3],31.2 ± 5.9%
same,percent Bodipy-positive cells,[2],80.1 ± 12%
Cc1ccc(O)c([C@H](CCN(C(C)C)C(C)C)c2ccccc2)c1,percent Bodipy-positive cells,[2],52.04 ± 0.51%
Cc1nc(N=Nc2ccc(S(=O)(=O)O)cc2S(=O)(=O)O)c(COP(=O)(O)O)c(C=O)c1O,percent Bodipy-positive cells,[2],8.42 ± 1.4%
O=C(O)c1cc(=O)c2c(OCC(O)COc3cccc4oc(C(=O)O)cc(=O)c34)cccc2o1 [Cromolyn disodium salt],percent Bodipy-positive cells,,16.6 ± 11%
O=C(O)c1cc(=O)c2c(OCC(O)COc3cccc4oc(C(=O)O)cc(=O)c34)cccc2o1 [Cromolyn Sodium],percent Bodipy-positive cells,[2],47.7 ± 8.7%
O=C(O)c1cc(=O)c2c(OCC(O)COc3cccc4oc(C(=O)O)cc(=O)c34)cccc2o1 [Cromolyn sodium],percent Bodipy-positive cells,[2],11.233 ± 0.0092%
CCCCC[C@H](O)/C=C/[C@@H]1[C@H](C/C=C\CCCC(=O)O)[C@H](O)C[C@H]1O [8-iso Prostaglandin F2.beta.],percent Bodipy-positive cells,[1],15.1 ± 1.9%
CC(=O)c1ccc2c(c1)N(CCCN1CCN(CCO)CC1)c1ccccc1S2,percent Bodipy-positive cells,[2],76.3 ± 2.7%
Cc1c(CC(C)(C)C(=O)O)n(Cc2ccc(Cl)cc2)c2ccc(F)cc12,percent Bodipy-positive cells,[2],7.36 ± 0.72%
CS(=O)(=O)c1ccc(Cn2c3c(c4cc(F)cc(F)c42)CCCC3CC(=O)O)cc1 (configuration not stated),percent Bodipy-positive cells,[2],9.36 ± 2.2%
OC[C@H]1O[C@H](O[C@H]2[C@H](O)[C@@H](O)C(O)O[C@@H]2CO)[C@H](O)[C@@H](O)[C@@H]1O (some centres not stated),percent Bodipy-positive cells,[2],25.6 ± 1.9%
O=c1cc(CN2CCOCC2)occ1OCCCCCSc1ccnc2cc(C(F)(F)F)ccc12,percent Bodipy-positive cells,[3],42.91 ± 0.35%
same,percent Bodipy-positive cells,[2],69.6 ± 3.8%
O[C@@H]1CO[C@H]2[C@@H]1OC[C@@H]2O [Isosorbide],percent Bodipy-positive cells,[3],15.5 ± 2.8%
same,percent Bodipy-positive cells,[2],27.2 ± 9.1%
COc1ccc(/C=C2\COc3ccc(C)cc3C2=O)cc1O,percent Bodipy-positive cells,[2],41.4 ± 3.8%
"COC1=C(OC)C(=O)c2ccccc2C1=O [2,3-Dimethoxy-1,4-naphthoquinone]",percent Bodipy-positive cells,[2],100%
"CCCCC[C@H](O)CC[C@@H]1[C@@H](CCCCCCC(=O)O)[C@@H](O)C[C@H]1O [13,14-dihydro Prostaglandin F1.alpha.]",percent Bodipy-positive cells,[1],13 ± 4.4%
"CCCCC[C@H](O)/C=C/[C@@H]1[C@H]2C/C=C\CCCC(=O)O[C@H]2C[C@H]1O [Prostaglandin F2.alpha. 1,9-lactone]",percent Bodipy-positive cells,[1],13.1 ± 3.3%
CCOc1ccc(Cc2cc([C@@H]3O[C@H](CO)[C@@H](O)[C@H](O)[C@H]3O)ccc2Cl)cc1 [Dapagliflozin],percent Bodipy-positive cells,[3],7.55 ± 2.6%
same,percent Bodipy-positive cells,[2],7.77 ± 0.61%
CCN(CC)CCNC(=O)c1c(C)[nH]c(/C=C2\C(=O)Nc3ccc(Cl)cc32)c1C,percent Bodipy-positive cells,[3],100%
COc1ccc2cc1Oc1ccc(cc1)C[C@H]1c3c(cc4c(c3Oc3cc5c(cc3OC)CCN(C)[C@@H]5C2)OCO4)CCN1C [Cepharanthine],percent Bodipy-positive cells,[2],93.38 ± 0.91%
CN(C)CCN1C(=O)c2cccc3cc(N)cc(c23)C1=O [Amonafide],percent Bodipy-positive cells,[3],44.4 ± 7.9%
same,percent Bodipy-positive cells,[2],76 ± 2.5%
CC1CCN(c2cc(N3CCN(C)CC3)ccc2NC(=O)c2cc(C#N)c[nH]2)CC1,percent Bodipy-positive cells,[4],3.57 ± 0.3%
same,percent Bodipy-positive cells,[5],9.46 ± 7.3%
same,percent Bodipy-positive cells,[6],17.9 ± 6.2%
CC(C)NCCCn1c(Sc2cc3c(cc2I)OCO3)nc2c(N)ncnc21,percent Bodipy-positive cells,[3],85.5 ± 1.9%
CC(C)CCC[C@@H](C)[C@H]1CC[C@H]2[C@@H]3CC=C4C[C@@H](O)CC[C@]4(C)[C@H]3CC[C@]12C [Cholesterol],percent Bodipy-positive cells,library stock concentration: 5.2 mM,17 ± 4.8%
Nc1ccn([C@@H]2O[C@H](CO)[C@@H](O)[C@H]2O)c(=O)n1 [Cytidine],percent Bodipy-positive cells,[3],15 ± 8.7%
same,percent Bodipy-positive cells,[2],6.16 ± 0.5%
CN(C)CCC(c1ccccc1)c1ccccn1 (configuration not stated) [Pheniramine maleate],percent Bodipy-positive cells,,22.2 ± 0.97%
same,percent Bodipy-positive cells,[2],15.6% and 14.5%
CN(C)CCC(c1ccccc1)c1ccccn1 (configuration not stated) [Pheniramine Maleate],percent Bodipy-positive cells,[3],17.1 ± 11%
same,percent Bodipy-positive cells,[2],43.8 ± 2.8%
Cc1cccc(Nc2nc(-c3ccncc3)cs2)c1,percent Bodipy-positive cells,[1],16.6 ± 6%
O=[N+]([O-])c1cc(Cl)ccc1S(=O)(=O)N1CCN(Cc2ccccc2)CC1,percent Bodipy-positive cells,[2],13.1 ± 3.4%
CCSc1ccc2c(c1)N(CCCN1CCN(C)CC1)c1ccccc1S2 [Thiethylperazine malate],percent Bodipy-positive cells,,35.5 ± 5.6%
CCCCc1nn(-c2ccccc2C(F)(F)F)c(=O)n1Cc1ccc(-c2ccccc2S(=O)(=O)NC(=O)c2sccc2C)cc1,percent Bodipy-positive cells,[2],9.81 ± 5.3%
Cc1c(O)cccc1C(=O)N[C@@H](CSc1ccccc1)[C@H](O)CN1C[C@H]2CCCC[C@H]2C[C@H]1C(=O)NC(C)(C)C [Nelfinavir mesylate hydrate],percent Bodipy-positive cells,[2],66.8 ± 13%
Cc1c(O)cccc1C(=O)N[C@@H](CSc1ccccc1)[C@H](O)CN1C[C@H]2CCCC[C@H]2C[C@H]1C(=O)NC(C)(C)C [Nelfinavir Mesylate],percent Bodipy-positive cells,library stock concentration: 3 mM,15.3 ± 3.9%
same,percent Bodipy-positive cells,[3],9.61 ± 1.7%
same,percent Bodipy-positive cells,[2],81 ± 1.7%
Cc1c(O)cccc1C(=O)N[C@@H](CSc1ccccc1)[C@H](O)CN1C[C@H]2CCCC[C@H]2C[C@H]1C(=O)NC(C)(C)C,percent Bodipy-positive cells,[2],42.4 ± 12%
COc1cc2nc(N3CCN(C(=O)c4ccco4)CC3)nc(N)c2cc1OC [Prazocin],percent Bodipy-positive cells,library stock concentration: 13 mM,94.9 ± 3.5%
O=C(O)c1cc(O)c(O)c(O)c1 [Gallic acid],percent Bodipy-positive cells,[2],25.4 ± 13%
same,percent Bodipy-positive cells,library stock concentration: 11.8 mM,3.6 ± 0.32%
CCN(CC)C(=O)N1CCN(C)CC1 [Diethylcarbamazine citrate],percent Bodipy-positive cells,,21.6 ± 8.6%
same,percent Bodipy-positive cells,library stock concentration: 5.1 mM,1.26 ± 0.53%
same,percent Bodipy-positive cells,[2],14.7 ± 4.2%
CCCCC#Cc1nc(NC)c2ncn([C@@H]3O[C@H](CO)[C@@H](O)[C@H]3O)c2n1,percent Bodipy-positive cells,[2],33.4% and 11.2%
O=S(=O)(NO)c1ccccc1 [Piloty's Acid],percent Bodipy-positive cells,[1],10.6 ± 2.6%
O=P(O)(O)C(O)(Cc1cccnc1)P(=O)(O)O [Risedronic acid],percent Bodipy-positive cells,library stock concentration: 7.1 mM,4.81 ± 0.081%
Nc1nccc2c1ncn2[C@@H]1O[C@H](CO)[C@@H](O)[C@H]1O [3-deazaadenosine],percent Bodipy-positive cells,[2],45.5 ± 25%
N[C@@H](Cc1ccc(F)cc1)C(=O)O [p-Fluoro-L-phenylalanine],percent Bodipy-positive cells,[2],52 ± 4.8%
O=C(Nc1ccc2[nH]ncc2c1)C1CCC1 [Rhodblock 6],percent Bodipy-positive cells,[2],34.9 ± 1.4%
